Paper PMC10576120
Positions count from the first letter of the chain named. Results are given in words; binding and its absence hold for the method and conditions named. In cells and extracts the contact can be indirect. A result given as binding can be weak or reduced; the word gives no strength.

Key:
Assay in all cases: cross-linking; in vivo disulfide cross-linking in E. coli coexpressing a PhoQ Cys variant (pBAD33) and a FLAG-MgrB Cys variant (pTrc99A); 0.1 mM Cu-phenanthroline, 10 min, 25 °C, buffer with 1 mM MgSO4; membrane fraction, Western blot with anti-FLAG; efficiency = complex / (complex + MgrB monomer)
[1] = biological target: T1, PhoQ linker Cys variant, position 184 (E. coli) (UniProt P23837)
T1 sequence: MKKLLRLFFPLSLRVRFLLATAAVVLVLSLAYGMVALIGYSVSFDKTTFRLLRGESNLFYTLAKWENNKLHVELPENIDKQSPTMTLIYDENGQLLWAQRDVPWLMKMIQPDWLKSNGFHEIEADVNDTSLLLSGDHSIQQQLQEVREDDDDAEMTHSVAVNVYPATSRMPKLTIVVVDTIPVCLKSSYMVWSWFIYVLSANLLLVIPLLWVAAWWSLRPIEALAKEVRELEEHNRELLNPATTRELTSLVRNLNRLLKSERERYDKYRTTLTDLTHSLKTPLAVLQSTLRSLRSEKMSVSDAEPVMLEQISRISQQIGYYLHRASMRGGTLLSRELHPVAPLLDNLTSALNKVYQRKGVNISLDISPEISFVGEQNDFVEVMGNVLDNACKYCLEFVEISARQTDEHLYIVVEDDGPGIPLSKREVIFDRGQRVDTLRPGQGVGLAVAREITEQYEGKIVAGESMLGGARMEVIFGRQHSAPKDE

[2] = biological target: T2, PhoQ linker Cys variant, position 185 (E. coli) (UniProt P23837)
T2 sequence: T1 sequence with C184E, L185C

[3] = biological target: T3, PhoQ linker Cys variant, position 186 (E. coli) (UniProt P23837)
T3 sequence: T1 sequence with C184E, K186C

[4] = biological target: T4, PhoQ linker Cys variant, position 187 (E. coli) (UniProt P23837)
T4 sequence: T1 sequence with C184E, S187C

[5] = biological target: T5, PhoQ linker Cys variant, position 188 (E. coli) (UniProt P23837)
T5 sequence: T1 sequence with C184E, S188C

PhoQ 194C (E. coli) = biological target: T6, PhoQ 194C (E. coli) (UniProt P23837)
T6 sequence: T1 sequence with C184E, W194C

PhoQ 196C (E. coli) = biological target: T7, PhoQ 196C (E. coli) (UniProt P23837)
T7 sequence: T1 sequence with C184E, I196C

PhoQ 198C (E. coli) = biological target: T8, PhoQ 198C (E. coli) (UniProt P23837)
T8 sequence: T1 sequence with C184E, V198C

PhoQ Y197C (E. coli) = biological target: T9, PhoQ Y197C (E. coli) (UniProt P23837)
T9 sequence: T1 sequence with C184E, Y197C

Measured: binding

FLAG-tagged MgrB D31C (from UniProt P64512)
binds: [1] | [2] | [3] | [4] | [5]

FLAG-tagged MgrB Q22C (from UniProt P64512)
binds: PhoQ 194C (E. coli) | PhoQ 196C (E. coli) | PhoQ 198C (E. coli) | PhoQ Y197C (E. coli)
